Literature values, collected in patent US9201077B2 (Colorado State University Research Foundation, priority 2009, dated 2015).
For at least one compound, name, drawing or mass did not settle the structure.

Test system: Anti-Progesterone (R4859) Antibody raised against 11α-hemisuccinate progesterone
Conditions: tested by UC Davis Endocrinology Laboratory

C[C@]12CC[C@@H]3c4ccc(O)cc4CC[C@H]3[C@@H]1CCC2=O [Estrone]
% Cross Reaction: <0.01%
